The exact form of at least one protein or probe is not confirmed.
Target: RAD52 (UniProt P43351)
Assay: FRET
Details: 1 nM dsDNA, stoichiometric complex at 10 nM RAD52, dsDNA bent; FRET: 30 mM Tris-acetate pH 7.5, 1 mM DTT, 0.1 mg/mL BSA, 25 C; recombinant protein

Chains of the proteins cited; added tags and fusions are not shown. Lines headed by an entry give the natural chain unless they say otherwise; changes in a name come on top.
UniProt P43351: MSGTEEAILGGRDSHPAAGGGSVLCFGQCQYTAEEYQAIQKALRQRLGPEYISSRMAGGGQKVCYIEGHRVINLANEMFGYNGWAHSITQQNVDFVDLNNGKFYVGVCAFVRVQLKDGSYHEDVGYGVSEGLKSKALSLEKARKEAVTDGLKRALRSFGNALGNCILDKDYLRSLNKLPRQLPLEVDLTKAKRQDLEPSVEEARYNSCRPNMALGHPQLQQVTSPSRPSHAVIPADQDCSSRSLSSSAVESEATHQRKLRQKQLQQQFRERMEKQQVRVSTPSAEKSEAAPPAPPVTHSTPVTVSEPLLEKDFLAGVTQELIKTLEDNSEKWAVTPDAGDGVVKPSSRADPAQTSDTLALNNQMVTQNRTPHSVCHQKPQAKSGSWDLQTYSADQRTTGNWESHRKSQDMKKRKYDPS

CGTTGCGGATGGCTTAGAGCTTAATTGC / GCAATTAAGCTCAAGCCATCCGCAACG [Cy3-Oligo28-Cy5 / Oligo28-REV]
binding result: binds
